Test results published in PubChem BioAssay AID2685 (National Center for Advancing Translational Sciences (NCATS), 2010).
The other results are listed elsewhere or left out. The main result of the screen is listed elsewhere. These columns were measured beside it and carry no call. Most of these compounds were active or inconclusive in the main read-out, so they are no random draw. Potencies come from curve fits of mixed quality, noted in brackets.

Test: qHTS Assay for Lipid Storage Modulators in Drosophila S3 Cells;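 as to cell number change: cells counted by Cell Tracker Red CMTPX staining in the red channel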
Details: BODIPY lipid droplet fluorescence, 18-24 h; for cell number change: measured here: cell count max response, cells fed with added oleic acid
Summary of the method: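 Laser-scanning cytometry quantifies lipid droplet accumulation (500–530 nm total intensity; droplet/cell object ratio) in oleic acid-fed (400 uM added) Drosophila S3 cells treated with a concentration series. 20 uM Triacsin C defined 100% inhibition.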

[1] = measured here: lipid fluorescence (Fed channel) AC50, cells fed with added oleic acid
[2] = measured here: cell number channel AC50, cells fed with added oleic acid

Compound	cell number change [%]	AC50 [1]	AC50 [2]
CCCC(=O)OCC(=O)Nc1ccc2[nH]c(=O)[nH]c2c1	0.923	0.651 µM [rising, single point]	
CCOC(=O)CCNC(=O)N1CCC(CCC(=O)NCc2ccc(F)cc2)CC1	-8.62	25.9 µM [falling, partial curve, poor fit]	
CCOc1ccccc1N1C(=O)c2ccc(C(=O)O)cc2C1=O		5.8 µM [falling, full curve]	
NC(=O)c1ccsc1NC(=O)COC(=O)c1nc(Cl)ccc1Cl	11.7	18.4 µM [rising, single point]	
CCNC(=O)NC(=O)CSc1ccc(S(=O)(=O)N(C)C2CCCCC2)cn1	-18.3	18.4 µM [rising, single point]	
CCC1CCCCN1CCCNC(=O)CSc1nc2nc(C)c(Cc3ccccc3)c(C)n2n1 (configuration not stated)	-7.62		
COc1ccccc1CN1CC(C(=O)NCCN2CCOC2=O)CCC1=O (configuration not stated)	-12.2		0.366 µM [falling, partial curve, poor fit]
O=C(Oc1ccc(Nc2ncnc3ccccc23)cc1)c1cccnc1	-42.4	5.17 µM [falling, partial curve, poor fit]	4.11 µM [falling, partial curve, poor fit]
O=C(/C=C/c1ccc(F)cc1)NC(=S)Nc1ccccc1C(=O)NC1CCCCC1	-14.7	29.1 µM [falling, single point]	
COc1ccccc1-c1c(-c2ccc(O)cc2O)n[nH]c1C(F)(F)F	-48.6	6.51 µM [falling, full curve]	11.6 µM [falling, partial curve]
COc1ccccc1-c1nn(Cc2ccccc2)cc1C(=O)N1CCN(c2ncccn2)CC1	3.45	6.51 µM [rising, single point]	
O=C(CN(c1ccc(F)cc1)S(=O)(=O)c1ccc2c(c1)OCCO2)NCc1ccccn1	25.7	6.51 µM [rising, single point]	
Cc1c(C(=O)NCc2ccccn2)oc2ccc(S(=O)(=O)N3CCOCC3)cc12	4.22	6.51 µM [rising, full curve]	
Cc1ccc(/C=C/S(=O)(=O)NCC(=O)OCC(=O)NCc2ccccc2)cc1	10.4		
COc1ccc(N2CCN(C(=O)COC(=O)c3ccc(OC(F)F)cc3)CC2)cc1	-12.1	0.731 µM [falling, full curve, poor fit]	
Cc1ccc(S(=O)(=O)NCc2ccc(C(=O)NCCCN3CCN(C)CC3)cc2)cc1	4.16	0.326 µM [falling, full curve]	
Cc1cc(C)c(S(=O)(=O)NC2CC(C)(C)NC(C)(C)C2)cc1Br	17.5		0.146 µM [rising, full curve, poor fit]
O=C(NCC(c1ccc(F)cc1)N1CCOCC1)c1cccc(Br)c1 (configuration not stated)	8.61		
C=CCn1cnc2c(c1=O)c1nc3ccccc3nc1n2-c1ccccc1		0.0206 µM [rising, full curve, poor fit]	
CC(C)(C)c1ccc(NC(=O)COC(=O)C2=COCCO2)cc1	17	0.00461 µM [rising, full curve, poor fit]	

Compound	cell number change [%]	AC50 [1]	AC50 [2]
Cc1cc(OC(=O)c2c(Cl)cc(Cl)cc2Cl)nc(C)n1	-21.9		
O=C1NCCN(Cc2cccc(Oc3ccccc3)c2)C1CC(=O)N1CCCCC1 (configuration not stated)	-12.9		
CCCCn1c(N)c(N(CC(C)C)C(=O)CSc2ccc([N+](=O)[O-])cc2)c(=O)[nH]c1=O	-100	0.291 µM [falling, single point]	29.1 µM [falling, single point]
Cc1cccc2cc(CN(Cc3ccco3)C(=O)NC3CCCCC3)c(=O)[nH]c12		0.651 µM [rising, partial curve, poor fit]	0.731 µM [rising, single point]
Cc1ccc2nc(NC(=O)CSc3nc4ccccc4o3)sc2c1	17	6.51 µM [rising, single point]	
CC(=O)c1ccc(NC(=O)c2ccc(C)c(S(=O)(=O)N3CCOCC3)c2)cc1	12.9	0.58 µM [rising, single point]	
CC1(C)Cc2c(sc(NC(=O)c3ccc4ncsc4c3)c2C(N)=O)C(C)(C)N1	12.3	0.103 µM [rising, full curve, poor fit]	
CCOC(=O)CSC1=NC(=O)/C(=C\c2ccc(OC(C)=O)cc2)S1			0.731 µM [rising, single point]
O=C(Cn1ccc2ccccc21)Nc1ccc2c(c1)OCO2	-7.64		0.0411 µM [falling, single point]
Nc1n[nH]c(-c2ccccc2[N+](=O)[O-])n1	-24.8	6.51 µM [rising, partial curve, poor fit]	
O=C1CCC(C(=O)N2CCSCC2)CN1Cc1cccc(C(F)(F)F)c1 (configuration not stated)	30.3	16.4 µM [rising, partial curve]	16.4 µM [rising, partial curve, poor fit]
CCN(C(=O)CN1CCc2ccccc21)c1c(N)n(Cc2ccccc2)c(=O)[nH]c1=O	-31.3	7.31 µM [falling, partial curve]	8.2 µM [falling, partial curve, poor fit]
C/C(=N\OCC(=O)OCC(=O)NC(=O)c1ccc(OC(F)F)cc1)c1ccc2c(c1)OCO2	-57.8		23.1 µM [falling, single point]
Cc1ccc(C(C)NC(=S)NC2CCCCC2)c(C)c1 (configuration not stated)	5.39	0.651 µM [rising, partial curve, poor fit]	
CC(C)CC(=O)Nc1ncc([N+](=O)[O-])s1	-38.8	16.4 µM [falling, single point]	7.31 µM [falling, full curve]
O=C(NCC1CCS(=O)(=O)C1)NCC1CCS(=O)(=O)C1 (configuration not stated)	2.44	0.00517 µM [falling, full curve, poor fit]	
CCCCN(C(=O)CSCC(=O)Nc1ccc(C)cc1)c1c(N)n(CCCC)c(=O)[nH]c1=O	13.8	0.517 µM [rising, full curve, poor fit]	
CC(NC(=O)C1CCN(S(=O)(=O)c2ccc(Br)s2)CC1)c1ccccc1 (configuration not stated)	43.7		29.1 µM [rising, single point]
Cc1cccc(NC(=O)CSc2nnc(-c3ccc(S(=O)(=O)N4CCCC4)cc3)o2)c1			2.91 µM [rising, partial curve]
Cc1nnc(SCC(=O)N2CCN(S(=O)(=O)c3ccccc3)CC2)[nH]c1=O	-91.9	29.1 µM [falling, single point]	

Compound	cell number change [%]	AC50 [1]	AC50 [2]
COC(=O)c1sccc1NC(=O)c1ccccc1	22.1	5.8 µM [rising, full curve, poor fit]	0.0291 µM [rising, full curve, poor fit]
Cc1[nH]n2c(=O)cc(C(C)C)nc2c1-c1ccccc1	8.91	14.6 µM [rising, single point]	
CN(Cc1ccccc1)c1nc2c(c(=O)[nH]c(=O)n2C)n1CCCSc1ncccn1	-20.8	1.16 µM [rising, partial curve]	
N/C(=N\OC(=O)Cc1ccccc1[N+](=O)[O-])c1ccccn1	11.4	6.51 µM [falling, partial curve, poor fit]	
CN(C(=O)CC1C(=O)NCCN1Cc1ccccc1F)C1CCOCC1 (configuration not stated)	-16.1	2.24 µM [falling, full curve]	
COc1ccc(-c2[nH]ncc2/C=N\NS(=O)(=O)c2ccc(Cl)cc2)cc1	-16.6	0.731 µM [rising, full curve]	
NC(=O)[C@H]1CC2(CC(c3cccc(NC(=O)COc4ccc(Cl)cc4)c3)=NO2)CN1C(=O)c1ccccc1C(=O)c1ccccc1 (some centres not stated)	-50.5	13 µM [falling, partial curve]	11.6 µM [falling, partial curve]
Cc1[nH]c2ccc(C(=O)OCC(=O)NC3(C#N)CCCCC3)cc2c1C	-38.6		11.6 µM [falling, partial curve, poor fit]
COC(=O)c1c(NS(=O)(=O)c2cccs2)sc2c1CCCC2		4.11 µM [rising, single point]	
CCOc1ccccc1NC(=O)Nn1cnnc1	-4.18		
CNc1ncc(Cc2ccccc2)s1	-18.9	23.1 µM [falling, partial curve]	
COc1ccccc1CNC(=O)COC(=O)/C=C/c1cccs1	-2.35		
O=C(N/N=C/c1ccccc1)c1ccco1	-13.4		
COc1cc(OC)nc(NC(=O)CSc2nc3ccccc3o2)n1		6.51 µM [rising, single point]	6.51 µM [rising, single point]
Fc1ccccc1Cn1nnc2c(-n3ccnc3)ncnc21	104	29.1 µM [rising, single point]	29.1 µM [rising, single point]
O=c1[nH]c(=O)c2nnc(N/N=C/c3ccccc3F)nc2[nH]1	-19.3	0.13 µM [falling, full curve, poor fit]	
Cc1ccc(NC2=CC(=O)C(=O)c3ccccc32)cc1	-73.7	16.4 µM [falling, single point]	20.6 µM [falling, single point]
CC(=O)NC(Cc1c[nH]c2ccccc12)C(=O)OCC(=O)Nc1cc(C)on1 (configuration not stated)			5.8 µM [rising, single point]

In a second layout: entries from further up
Compound | cell number change [%] | AC50 [1] | AC50 [2]
CN(Cc1ccccc1)c1nc2c(c(=O)[nH]c(=O)n2C)n1CCCSc1ncccn1 | -20.8 | 1.16 µM [rising, partial curve] | 
N/C(=N\OC(=O)Cc1ccccc1[N+](=O)[O-])c1ccccn1 | 11.4 | 6.51 µM [falling, partial curve, poor fit] | 
CN(C(=O)CC1C(=O)NCCN1Cc1ccccc1F)C1CCOCC1 (configuration not stated) | -16.1 | 2.24 µM [falling, full curve] | 
